# Values of other authors, collected in patent publication EP2578210A1, “Rottlerin for the treatment of pulmonary hypertension and related diseases and disorders” (ATB Innovation Ltd., priority 2011, dated 2013).
# At least one compound was matched to its structure with a doubt left.
# Test system: pulmonary arteries
# Conditions: activation of Kv7 with unspecific Kv7 activators; cited from earlier work
smiles,measurement,value
CCOC(=O)Nc1ccc(NCc2ccc(F)cc2)cc1N [retigabine],effect on pulmonary arteries,relax pulmonary arteries
